The list shows a part of the results.
Compound: CC1Cc2ccccc2N1C(=O)C1CCCN(C1)C(=O)CCl (mixture of isomers) [TRIM25 ligand 11 (diastereomer mixture)]
Experiment: probe-labelled cysteine peptide fold change vs DMSO (competition) (log2 fold change); higher = less target engagement (more negative = stronger competition)
Settings: THP-1, incubation time: 4 h
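Note: competitive chemoproteomic profiling in live THP-1 cells with an iodoacetamide desthiobiotin (IA-DTB) probe, comparing probe-labelled peptide intensities in compound-treated cells against DMSO-treated controls.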

| Target | probe-labelled cysteine peptide fold change (10 µM) | probe-labelled cysteine peptide fold change (50 µM) |
| --- | --- | --- |
| PTDSS1_P48651_153_EADVMEYAVNCHVITWER (UniProt P48651) | 0.164 | 0.262 |
| PSMC2_P35998_389_SVCTEAGMFAIR (UniProt P35998) | -0.00859 | -0.0262 |
| PUM1_Q14671_1102_AVLIDEVCTMNDGPHSALYTMMK (UniProt Q14671) | -0.292 | -0.179 |
| PTER_Q96BW5_38+43_TLTHEHLAMTFDCCYCPPPPCQEAISK (UniProt Q96BW5) | 0.0301 | -0.329 |
| PTPN1_P18031_121_CAQYWPQK (UniProt P18031) | -0.0476 | -0.0308 |
| PSMB8_P28062_7_ALLDVCGAPR (UniProt P28062) | -0.148 | -0.0898 |
| PSMC3_P17980_387+396_CTDDFNGAQCK (UniProt P17980) | -0.23 | 0.0805 |
| PSMD13_Q9UNM6_49_KLWHQLTLQVLDFVQDPCFAQGDGLIK (UniProt Q9UNM6) | -0.149 | -0.154 |
| PTK2B_Q14289_298_QLTSQDAKPTCLAEFK (UniProt Q14289) | -0.00395 | -0.0466 |
| PTK2B_Q14289_89_LAECYGLR (UniProt Q14289) | -0.0348 | 0.0529 |
| PSMD12_O00232_108+109_MVQQCCTYVEEITDLPIK (UniProt O00232) | -0.214 | -0.0992 |
| PTGES3_Q15185_76_SILCCLR (UniProt Q15185) | -0.0218 | -0.119 |
| PTPN7_P35236_324_GEVDILGIVCQLR (UniProt P35236) | -0.0582 | 0.0233 |
| PTK2B_Q14289_650_LPKPDLCPPVLYTLMTR (UniProt Q14289) | -0.0455 | -0.11 |
| PSME2_Q9UL46_91_CGFLPGNEK (UniProt Q9UL46) | -0.166 | -0.195 |
| PTPRC_P08575_400_TDFGSPGEPQIIFCR (UniProt P08575) | 0.192 | 0.272 |
| PSMC2_P35998_377_LCPNSTGAEIR (UniProt P35998) | 0.115 | 0.0762 |
| PSMC4_P43686_210_QIGIDPPRGVLMYGPPGCGK (UniProt P43686) | -0.529 | -0.421 |

Reference: the supplement of paper PMC12067093, “Discovery and optimisation of a covalent ligand for TRIM25 and its application to targeted protein ubiquitination” (Chemical Science, 2025)
